Data source: PubChem BioAssay AID504774 (Drosophila RNAi Screening Center, 2011)

Aim: 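Knock-downs that shift viability of MMS-exposed cells relative to untreated ones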 (primary screen)
System: Drosophila Kc167 cells
Reagent: long dsRNA against Drosophila genes, about 0.25 µg dsRNA per well
Duration: about 6 days: 3 days knock-down, then 3 days with or without MMS
Conditions: methyl methanesulphonate 0.004% (w/v) for 3 days after knock-down
Detection: 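ATP-dependent luminescence as a measure of live cells in MMS-exposed wells, quantile normalised within each plate, with replicate values also given as a mean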
Direction: mean viability with MMS and viability with MMS: higher = more surviving cells after MMS
In all, the deposit lists about 23,000 reagents; below is an unselected part of those that have a named target and a result. 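Values are quantile-normalised luminescence on an arbitrary scale; higher means more cells surviving MMS.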 Reagents against one gene are numbered here. A plus sign joins genes that one reagent is predicted to hit. Further read-outs or replicates are left out here. No sequences are given here.

Cyp6d4 (Cytochrome P450 6d4)
- mean viability with MMS: 3.56e6
- viability with MMS, replicate 1: 4.00e6

CG12075
- mean viability with MMS: 3.56e6
- viability with MMS, replicate 1: 3.86e6

galene #1
- mean viability with MMS: 3.58e6
- viability with MMS, replicate 1: 4.01e6

galene #2
- mean viability with MMS: 3.70e6
- viability with MMS, replicate 1: 4.11e6

CG14054
- mean viability with MMS: 3.52e6
- viability with MMS, replicate 1: 4.13e6

Hmt4-20 (Histone methyltransferase 4-20)
- mean viability with MMS: 3.17e6
- viability with MMS, replicate 1: 3.75e6

babos #1
- mean viability with MMS: 3.44e6
- viability with MMS, replicate 1: 3.87e6

babos #2
- mean viability with MMS: 3.59e6
- viability with MMS, replicate 1: 4.20e6

Hsp70Bb + Hsp70Bbb
- mean viability with MMS: 3.64e6
- viability with MMS, replicate 1: 4.19e6

The list goes on (2 carried over from the part before).
babos #2
- mean viability with MMS: 3.59e6
- viability with MMS, replicate 1: 4.20e6

Hsp70Bb + Hsp70Bbb
- mean viability with MMS: 3.64e6
- viability with MMS, replicate 1: 4.19e6

CG32814
- mean viability with MMS: 3.45e6
- viability with MMS, replicate 1: 3.94e6

CG3502 + CG9863
- mean viability with MMS: 3.68e6
- viability with MMS, replicate 1: 4.14e6

Strica (Ser/Thr-rich caspase)
- mean viability with MMS: 3.57e6
- viability with MMS, replicate 1: 4.00e6

Mov10 (Mov10 RISC complex RNA helicase)
- mean viability with MMS: 3.40e6
- viability with MMS, replicate 1: 3.86e6

TwdlR (TweedleR)
- mean viability with MMS: 3.56e6
- viability with MMS, replicate 1: 4.06e6
